Assay results as given in paper PMC11549447.
Positions count from the first letter of the chain named. These are yes or no findings as the source states them, for the method shown. In cells and extracts the contact can be indirect. Some results given as binding are weak or reduced against the parent protein; the word gives no strength. Tags and fused reporters may be left off the sequences shown.

Sequences of proteins named here, by UniProt entry; tags and fusion partners are left off.
UniProt P04150: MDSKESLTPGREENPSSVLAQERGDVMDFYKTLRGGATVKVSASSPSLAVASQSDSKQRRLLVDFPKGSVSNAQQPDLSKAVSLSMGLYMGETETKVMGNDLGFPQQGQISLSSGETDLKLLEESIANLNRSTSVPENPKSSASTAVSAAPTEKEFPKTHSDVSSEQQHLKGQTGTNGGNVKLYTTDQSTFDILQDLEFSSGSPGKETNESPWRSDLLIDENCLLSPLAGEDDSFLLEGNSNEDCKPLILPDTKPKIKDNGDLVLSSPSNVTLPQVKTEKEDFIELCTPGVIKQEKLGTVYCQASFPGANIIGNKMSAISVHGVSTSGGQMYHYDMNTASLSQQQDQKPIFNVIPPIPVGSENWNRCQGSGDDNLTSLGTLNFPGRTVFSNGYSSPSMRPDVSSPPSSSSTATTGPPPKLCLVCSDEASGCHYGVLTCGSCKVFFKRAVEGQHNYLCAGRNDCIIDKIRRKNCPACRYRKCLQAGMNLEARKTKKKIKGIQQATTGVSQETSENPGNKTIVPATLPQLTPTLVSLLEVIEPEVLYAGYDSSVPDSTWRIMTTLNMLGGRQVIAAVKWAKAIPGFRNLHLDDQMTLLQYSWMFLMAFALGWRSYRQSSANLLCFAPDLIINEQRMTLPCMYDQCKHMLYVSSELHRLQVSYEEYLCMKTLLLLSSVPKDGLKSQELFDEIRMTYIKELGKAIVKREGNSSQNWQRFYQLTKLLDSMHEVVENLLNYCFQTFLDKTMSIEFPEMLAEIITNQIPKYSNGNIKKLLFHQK

Assays:
Experiment in all cases: co-IP; anti-FLAG agarose IP of PP5-FLAG (WT or mutants) from lysate of transfected HEK293 cells, 2 h at 4 °C; washes in 20 mM Tris-HCl pH 7.4, 100 mM NaCl, 1 mM MgCl2, 0.1% NP40; endogenous partners by immunoblot; some panels with CK1δ-myc co-expressed or 2 µM IC261 for 16 h
[1] = target: T1, PP5-FLAG-K97E/R101E-K430R (UniProt P53041)
T1 sequence: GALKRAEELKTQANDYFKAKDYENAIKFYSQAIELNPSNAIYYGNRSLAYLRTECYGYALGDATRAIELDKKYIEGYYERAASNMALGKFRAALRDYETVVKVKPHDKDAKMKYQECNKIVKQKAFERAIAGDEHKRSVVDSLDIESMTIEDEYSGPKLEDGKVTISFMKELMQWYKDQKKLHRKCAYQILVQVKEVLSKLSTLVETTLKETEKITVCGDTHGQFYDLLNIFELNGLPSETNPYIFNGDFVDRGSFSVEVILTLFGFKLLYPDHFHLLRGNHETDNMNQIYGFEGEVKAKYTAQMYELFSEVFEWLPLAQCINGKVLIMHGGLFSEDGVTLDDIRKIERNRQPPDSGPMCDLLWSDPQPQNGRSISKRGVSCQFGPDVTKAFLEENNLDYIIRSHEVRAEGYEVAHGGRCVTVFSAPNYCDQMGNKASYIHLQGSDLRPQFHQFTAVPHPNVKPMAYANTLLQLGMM

[2] = target: T2, PP5-FLAG-K430R, non-SUMOylatable mutant (UniProt P53041)
T2 sequence: T1 sequence with E75K, E79R

[3] = target: T3, PP5-FLAG-T362E-K430R double mutant (UniProt P53041)
T3 sequence: T1 sequence with E75K, E79R, T340E

[4] = target: T4, serine/threonine protein phosphatase 5 (PP5), wild-type PP5-FLAG (UniProt P53041)
T4 sequence: T1 sequence with E75K, E79R, R408K

Q: How did the binding [1] turn out when “glucocorticoid receptor (GR), endogenous (from UniProt P04150 1-777)” was run?
A: no binding

Q: And the binding [2]?
A: binds

Q: What about the binding [3] of the same substance?
A: binds

Q: And the binding [4]?
A: binds
